Results as given in publication PMC6506688.

Biological target: FLAG-tagged FBXO11 (F box protein O11)
Assay: co-IP; HEK293T cells transfected with epitope-tagged plasmids; whole-cell extracts immunoprecipitated with FLAG antibody overnight at 4°C, protein A and G agarose beads, five washes with lysis buffer, immunoblotting

binding: binds
B1: MYC-tagged AIP (aryl hydrocarbon receptor interacting protein) (protein, UniProt O00170 1-330)
chain: MADIIARLREDGIQKRVIQEGRGELPDFQDGTKATFHYRTLHSDDEGTVLDDSRARGKPMELIIGKKFKLPVWETIVCTMREGEIAQFLCDIKHVVLYPLVAKSLRNIAVGKDPLEGQRHCCGVAQMREHSSLGHADLDALQQNPQPLIFHMEMLKVESPGTYQQDPWAMTDEEKAKAVPLIHQEGNRLYREGHVKEAAAKYYDAIACLKNLQMKEQPGSPEWIQLDQQITPLLLNYCQCKLVVEEYYEVLDHCSSILNKYDDNVKAYFKRGKAHAAVWNAQEAQADFAKVLELDPALAPVVSRELRALEARIRQKDEEDKARFRGIFSH

Results are given in words; binding and its absence hold for the method and conditions named. In cells and extracts the contact can be indirect. A result given as binding can be weak or reduced; the word gives no strength. Sequences can lack the tags named with a protein.
